Source: paper PMC8891971
No constants are given. Whether binding was seen depends on the method and setting. In cells and extracts the contact can be indirect.

The chains behind the UniProt entries cited, without tags or fusion partners.
UniProt O88477: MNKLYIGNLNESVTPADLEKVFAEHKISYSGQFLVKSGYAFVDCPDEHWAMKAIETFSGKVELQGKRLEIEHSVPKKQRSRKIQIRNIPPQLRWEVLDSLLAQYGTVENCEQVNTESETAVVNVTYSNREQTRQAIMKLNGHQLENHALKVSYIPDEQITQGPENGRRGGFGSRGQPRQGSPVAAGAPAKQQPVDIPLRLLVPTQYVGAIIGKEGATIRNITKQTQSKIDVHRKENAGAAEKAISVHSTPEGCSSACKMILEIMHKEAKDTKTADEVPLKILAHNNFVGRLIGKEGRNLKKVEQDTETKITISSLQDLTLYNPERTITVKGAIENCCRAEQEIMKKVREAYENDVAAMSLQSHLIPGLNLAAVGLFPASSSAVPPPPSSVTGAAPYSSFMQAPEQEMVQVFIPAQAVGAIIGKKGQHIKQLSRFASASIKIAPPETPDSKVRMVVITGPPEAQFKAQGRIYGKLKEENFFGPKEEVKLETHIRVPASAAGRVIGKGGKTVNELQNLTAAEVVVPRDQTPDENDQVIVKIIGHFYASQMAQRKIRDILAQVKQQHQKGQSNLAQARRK

Target: insulin-like growth factor 2 mRNA-binding protein 1 (IGF2BP1), endogenous in mouse embryonic fibroblasts (mouse (endogenous in MEF)) (UniProt O88477)
Experiment: co-IP; lysate in polysome lysis buffer (10 mM Hepes pH 7.0, 5 mM MgCl2, 100 mM KCl, 0.5% NP-40) incubated with anti-IMP-1 antibody and protein G paramagnetic particles at 4 °C; immunoprecipitate purified by IFAST; bound and unbound fractions analysed by Western blotting

- binding: no binding
B1: Vinculin, endogenous in mouse embryonic fibroblasts (protein, UniProt Q64727 1-1066)
chain: MPVFHTRTIESILEPVAQQISHLVIMHEEGEVDGKAIPDLTAPVAAVQAAVSNLVRVGKETVQTTEDQILKRDMPPAFIKVENACTKLVQAAQMLQSDPYSVPARDYLIDGSRGILSGTSDLLLTFDEAEVRKIIRVCKGILEYLTVAEVVETMEDLVTYTKNLGPGMTKMAKMIDERQQELTHQEHRVMLVNSMNTVKELLPVLISAMKIFVTTKNSKNQGIEEALKNRNFTVEKMSAEINEIIRVLQLTSWDEDAWASKDTEAMKRALASIDSKLNQAKGWLRDPNASPGDAGEQAIRQILDEAGKVGELCAGKERREILGTCKMLGQMTDQVADLRARGQGASPVAMQKAQQVSQGLDVLTAKVENAARKLEAMTNSKQSIAKKIDAAQNWLADPNGGPEGEEQIRGALAEARKIAELCDDPKERDDILRSLGEIAALTSKLGDLRRQGKGDSPEARALAKQVATALQNLQTKTNRAVANSRPAKAAVHLEGKIEQAQRWIDNPTVDDRGVGQAAIRGLVAEGHRLANVMMGPYRQDLLAKCDRVDQLTAQLADLAARGEGESPQARALASQLQDSLKDLKAQMQEAMTQEVSDVFSDTTTPIKLLAVAATAPPDAPNREEVFDERAANFENHSGRLGATAEKAAAVGTANKSTVEGIQASVKTARELTPQVISAARILLRNPGNQAAYEHFETMKNQWIDNVEKMTGLVDEAIDTKSLLDASEEAIKKDLDKCKVAMANIQPQMLVAGATSIARRANRILLVAKREVENSEDPKFREAVKAASDELSKTISPMVMDAKAVAGNISDPGLQKSFLDSGYRILGAVAKVREAFQPQEPDFPPPPPDLEQLRLTDELAPPKPPLPEGEVPPPRPPPPEEKDEEFPEQKAGEVINQPMMMAARQLHDEARKWSSKGNDIIAAAKRMALLMAEMSRLVRGGSGTKRALIQCAKDIAKASDEVTRLAKEVAKQCTDKRIRTNLLQVCERIPTISTQLKILSTVKATMLGRTNISDEESEQATEMLVHNAQNLMQSVKETVREAEAASIKIRTDAGFTLRWVRKTPWYQ
